For 60 compounds, cell number change and AC50 results are on record in PubChem BioAssay AID2685 (National Center for Advancing Translational Sciences (NCATS), 2010).

This assay is described as follows: qHTS Assay for Lipid Storage Modulators in Drosophila S3 Cells.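 As to cell number change: cells counted by Cell Tracker Red CMTPX staining in the red channel.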 To be noted: BODIPY lipid droplet fluorescence, 18-24 h; for cell number change: measured here: cell count max response, cells fed with added oleic acid. The gist of the method: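 Drosophila S3 cells loaded with oleic acid (400 uM, as added) and compounds at several concentrations; lipid droplets imaged by 488-nm laser-scanning cytometry, 500–530 nm intensity and object ratio to cell channel. Percent activity normalized to 20 uM Triacsin C.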

[1] abbreviates: measured here: lipid fluorescence (Fed channel) AC50, cells fed with added oleic acid.
Where [2] appears, read: measured here: cell number channel AC50, cells fed with added oleic acid.

Some of the results follow. These are further read-outs of the screen, such as a control signal, another cell line or another target. No call is given for them. Compounds called inactive in the main read-out are mostly missing here. Potencies come from curve fits of mixed quality, noted in brackets.

In general, AC50 refers to the midpoint of the concentration-response curve, whichever way the signal moves. A lower AC50 goes with activity at low concentration. For `CCOC(=O)c1c(C)n(C)c2c(C)cc(O)c(OC(=O)CC)c12`, the cell number change was determined as 7.86%. Besides, the AC50 under setting [1] is 18.4 µM [rising, single point].

As for `CCN1CCN(c2c(/C=C3\SC(=S)N(Cc4ccco4)C3=O)c(C)c(C#N)c(=O)n2C)CC1`, the cell number change was -30.3%. For the same compound, the AC50 under setting [2] was 32.6 µM [falling, single point]. Besides, the AC50 under setting [1] is 2.31 µM [falling, partial curve]. As to `Cc1cc(NC(=O)c2cncc(Br)c2)ccc1NC(=O)c1cc2ccccc2o1`, the cell number change is -64.4%. The AC50 under setting [2] is 5.17 µM [falling, partial curve]. For the same compound, the concentration at half-maximal activity (AC50) under setting [1] was 4.11 µM [falling, full curve]. As to `COc1ccc(C(CNC(=O)CCNC(=O)c2ccccc2Cl)N2CCCC2)cc1` (centres undefined), the cell number change is -2.76%. The concentration at half-maximal activity (AC50) under setting [1] was 0.651 µM [rising, full curve]. Regarding `COc1ccc(OC)c2c(C)cc(N3CCN(C(=O)c4ccc(F)cc4)CC3)nc12`, the cell number change stood at 5.37%. Also, under setting [1], the concentration at half-maximal activity (AC50) is 6.51 µM [falling, full curve, poor fit]. Take `CN(Cc1ccccc1)C(=O)COc1ccc(C(C)(C)C)cc1`: the cell number change is -36.5%. Also, the AC50 under setting [2] is 20.6 µM [falling, single point]. Also, the AC50 under setting [1] is 6.51 µM [rising, single point]. `O=c1[nH]c(C2CCN(S(=O)(=O)c3ccccc3)CC2)nc2c1nnn2Cc1c(F)cccc1Cl`: the cell number change was determined as 7.69%. As to `COc1ccc(-c2cc(=O)oc3cc(OCC(=O)NCc4ccccn4)ccc23)cc1`, the cell number change was found to be 7.44%. Besides, the AC50 under setting [2] is 0.291 µM [rising, full curve, poor fit]. Under setting [1], the AC50 is 29.1 µM [falling, single point]. As to `O=C(CCc1ccccc1)c1ccc2c(c1)OCCCO2`, the cell number change came out at 41.5%. In addition, the AC50 under setting [2] is 23.1 µM [rising, partial curve, poor fit]. As to `COc1ccc(CC(=O)NNc2ncnc3c2cnn3C)cc1OC`, the cell number change is -16.9%. Under setting [2], the AC50 was 0.103 µM [falling, full curve, poor fit]. Also, the AC50 under setting [1] was 20.6 µM [rising, single point]. Turning to `CCCCN(CCCC)CC(O)COc1ccccc1Br` (centres undefined), the cell number change amounted to 5.57%. Moreover, the concentration at half-maximal activity (AC50) under setting [1] was 0.82 µM [falling, full curve, poor fit]. With `Clc1nc2ccccc2cc1/C=N/Nc1nc2ccccc2[nH]1`, the cell number change was -47.4%. The AC50 under setting [2] was 0.116 µM [falling, full curve]. Further, the AC50 under setting [1] is 0.103 µM [falling, full curve, poor fit].

Take `COc1ccc(N2CCN(S(=O)(=O)c3ccc4c(c3)NC(=O)C(C)C(=O)N4)CC2)cc1` (centres undefined): the cell number change came out at 2.88%. Further, the half-maximal activity concentration (AC50) under setting [1] was 20.6 µM [falling, single point]. Turning to `N#Cc1ccc(S(=O)(=O)N2CCN(Cc3cccs3)CC2)cc1`, the cell number change is -5.22%. Besides, the half-maximal activity concentration (AC50) under setting [2] is 4.11 µM [falling, single point]. For `CCc1nn2c(NCCOC)cc(C)nc2c1-c1ccc(F)cc1`, the AC50 under setting [2] was 0.366 µM [rising, partial curve, poor fit]. `O=S(=O)(Nc1cc(Cl)ccc1-n1cncn1)c1ccc(F)cc1`: the cell number change amounted to 19.5%. As for `CC(O)CNCCNCc1c(OCc2ccccc2)ccc2ccccc12` (centres undefined), the cell number change was 84.9%. Moreover, the concentration at half-maximal activity (AC50) under setting [2] was 18.4 µM [rising, single point].

Regarding `CCCN1C(=O)C(NC(=O)c2ccncc2)(C(F)(F)F)C2=C1CC(C)(C)CC2=O` (centres undefined), the cell number change was -2.43%.

Consider `CCC1CCCCN1CCCNC(=O)Cn1c(=O)c2cccn2c2ccccc21` (centres undefined), for which, under setting [2], the half-maximal activity concentration (AC50) was 0.82 µM [rising, single point]. Turning to `COc1ccc(C)cc1S(=O)(=O)N(C)CC(=O)NC1CCCCC1`, the cell number change was found to be 23.7%. Moreover, the AC50 under setting [1] is 5.17 µM [rising, full curve]. `O=C(N/N=C/c1ccc(F)cc1)c1cccc(NC(=O)c2ccccc2Cl)c1`: the cell number change is 17.1%. With `Cc1cc(OCC(=O)NC(C)C)cc(C)c1Br`, the cell number change came to 21.6%. Further, under setting [1], the AC50 was 2.06 µM [rising, single point]. As to `C=CCc1c(C)nc(SCC(=C)C)[nH]c1=O`, the cell number change was -13.9%. Further, under setting [2], the AC50 is 0.92 µM [falling, full curve].

For the compound `COc1ccc(CNC(=O)C2CCN(S(=O)(=O)c3cccnc3)CC2)cc1`, the cell number change is -16%. Further, the concentration at half-maximal activity (AC50) under setting [1] is 20.6 µM [rising, single point]. On to `O=C(CSc1nnc(-c2ccccn2)n1Cc1ccco1)c1ccc(-c2ccccc2)cc1`, for which the cell number change is -2.62%.

`COc1ccc2c(c1)O[C@@H](c1cccc(C(F)(F)F)c1)[C@H](O)C2=O`: the cell number change was -30.8%. Besides, the AC50 under setting [2] was 10.3 µM [falling, partial curve]. Besides, the AC50 under setting [1] was 18.4 µM [falling, single point].

For the compound `COc1cc(OC)cc(C(=O)NC(=S)Nc2ccc(Cl)c(C(=O)O)c2)c1`, the cell number change was -23.2%. Same read-out and setting: next, `COc1ccccc1C(=O)NC(=O)COC(=O)Cc1n[nH]c(=O)c2ccccc12`: 17.8%. Consider `Cc1csc(Sc2ccc(C(=O)OCC(=O)Nc3ccc(OC(F)(F)F)cc3)cc2[N+](=O)[O-])n1`, for which the cell number change was 9.35%. The AC50 under setting [2] was 0.58 µM [falling, full curve]. Take `CC(=O)N(CCCNC(=O)c1ccccc1)C(=O)c1ccccc1`: the cell number change stood at 9.04%. For the same compound, under setting [1], the AC50 is 1.46 µM [falling, partial curve, poor fit]. For `COc1ccc(C2c3cc(OC)c(OC)cc3CCN2C(=O)c2cccc([N+](=O)[O-])c2)cc1OC` (centres undefined), the cell number change is 18.1%. Further, the half-maximal activity concentration (AC50) under setting [2] was 1.84 µM [rising, partial curve]. Consider `COc1ccc(CNC(=O)COC(=O)CC2CCCC2)cc1`, for which the concentration at half-maximal activity (AC50) under setting [1] is 0.58 µM [rising, single point]. Take `CCOC(=O)CCC(=O)N1CCOCCN(C(=O)CCC(=O)OCC)CCOCC1`: the cell number change is -11.7%. Same read-out and setting: next, `CC(C)(C)C(=O)Nc1nnc(SCC(=O)NC2CCCC2)s1`: -13.2%. On to `O=C(c1c(O)cc(O)cc1O)C1c2c(cc(O)c3c2O[C@H](c2ccc(O)cc2)[C@@H](O)C3)OC1c1ccc(O)cc1` (some centres undefined), for which the cell number change was determined as 14.8%. Also, under setting [1], the half-maximal activity concentration (AC50) is 29.1 µM [rising, single point]. For the compound `CCOc1ccc(N2CC(C(=O)Nc3nnc(Cc4ccccc4)s3)CC2=O)cc1` (centres undefined), the cell number change is -1.9%. The AC50 under setting [1] is 0.231 µM [rising, full curve, poor fit].

As to `O=C(CN(C(=O)CNC(=O)c1ccco1)c1ccccc1F)NC1CCCCC1`, the cell number change was -0.417%. As for `O=C(COc1ccc(C(=O)O)cc1)Nc1cccc(C(F)(F)F)c1`, the cell number change came to 2.64%. For the same compound, the concentration at half-maximal activity (AC50) under setting [1] is 29.1 µM [falling, partial curve, poor fit]. As for `CC1CCCC(NC(=O)CSc2nnnn2C)C1C` (centres undefined), the cell number change stood at 3.25%. Under setting [1], the AC50 was 32.6 µM [rising, single point].

With `Oc1c(N=NC(=S)Nc2ccccc2F)c2ccccc2n1Cc1ccc(Cl)cc1`, the cell number change was -44.7%. Under setting [2], the AC50 is 0.0164 µM [falling, full curve, poor fit]. Consider `Nc1cc(Oc2cccnc2)cc([N+](=O)[O-])c1`, for which the cell number change turned out to be 2.65%. Also, the AC50 under setting [1] is 0.184 µM [falling, full curve, poor fit]. For the compound `Cc1ccc(C(=O)CCC(=O)Nc2ccccc2C)c(C)c1`, the cell number change is -16.8%. In addition, the half-maximal activity concentration (AC50) under setting [1] was 32.6 µM [rising, single point].

Regarding `O=C(Nc1ccccc1)c1ccc(NCCN2C(=O)CCC2=O)c([N+](=O)[O-])c1`, the cell number change is -42.9%. Further, the concentration at half-maximal activity (AC50) under setting [2] was 2.59 µM [falling, full curve]. Besides, under setting [1], the concentration at half-maximal activity (AC50) was 2.91 µM [falling, full curve]. With `COc1ccccc1C(=O)NCCOc1ccc(C(C)(C)C)cc1`, the cell number change is -28.3%. In addition, under setting [1], the half-maximal activity concentration (AC50) was 29.1 µM [falling, single point]. For `Cc1ccc(-n2c(Cc3cccs3)nnc2SCC(=O)OC(C)C)cc1`, the cell number change is -2.49%. For the same compound, the half-maximal activity concentration (AC50) under setting [1] is 0.092 µM [falling, full curve, poor fit]. Take `CC12CCC(C(=O)Nc3ccncc3)(CC1O)C2(C)C` (centres undefined): the cell number change is -29.7%. As to `COc1ccc(C(=O)N[C@H](C(=O)Nc2ccc(S(=O)(=O)N3CCOCC3)cc2)C(C)C)cc1`, the cell number change amounted to 3.18%. The AC50 under setting [1] was 0.058 µM [falling, full curve, poor fit]. Take `N#Cc1c(-c2ccccc2F)cc(-c2cccnc2)nc1N`: the cell number change is -16.7%. For the same compound, under setting [2], the AC50 is 6.51 µM [rising, single point]. For the same compound, under setting [1], the half-maximal activity concentration (AC50) is 2.59 µM [rising, partial curve, poor fit]. In the case of `O=C(CCN1C(=O)COc2ccccc21)NCCCN1CCCC1`, the AC50 under setting [1] was 29.1 µM [rising, single point].

As to `Cc1ccc(S(=O)(=O)NC2OC(=O)C(Cl)=C2Cl)cc1` (centres undefined), the cell number change is -35.1%. In addition, under setting [2], the AC50 is 25.9 µM [falling, partial curve, poor fit].

For `O=C1C(N2CCOCC2)=C(n2nnc3ccccc32)C(=O)c2ccccc21`, the cell number change is -50%. Further, the concentration at half-maximal activity (AC50) under setting [2] is 16.4 µM [falling, single point]. Also, the AC50 under setting [1] was 20.6 µM [falling, partial curve].

Take `O=C(CCCN1C(=O)/C(=C/c2cccs2)SC1=S)Nc1cc([N+](=O)[O-])ccc1O`: the cell number change is -3.3%. For the same compound, the concentration at half-maximal activity (AC50) under setting [1] was 8.2 µM [rising, partial curve].

For the compound `O=C(CSc1ccc(Cl)cc1)Nc1ccc(N2CCN(C(=O)c3ccco3)CC2)cc1`, the AC50 under setting [2] was 6.51 µM [rising, single point].

Consider `CC(C)NC(=O)c1ccc2c(c1)N(CC(=O)N1CCOCC1)C(=O)C(C)(C)O2`, for which the cell number change was found to be 2.82%. For the same compound, the half-maximal activity concentration (AC50) under setting [1] was 0.00651 µM [rising, full curve, poor fit].

In the case of `Cc1ccc(S(=O)(=O)N(Cc2cccc(F)c2)C(=O)N2CCN(C)CC2)cc1`, the cell number change was -37.3%. For the same compound, the concentration at half-maximal activity (AC50) under setting [2] was 11.6 µM [falling, partial curve]. Moreover, the AC50 under setting [1] is 16.4 µM [falling, partial curve].

As for `Cc1ccccc1NC(=O)NCCc1c[nH]c2ccccc12`, the cell number change came to 11.5%. Still for that read-out and setting: next, `Cc1ccc(C2(C)NC(=O)N(CC(=O)Nc3ccc4[nH]c(=O)[nH]c4c3)C2=O)cc1` (centres undefined): 9.44%. For the compound `CC(=O)c1cccc(NC(=O)c2cccc(S(=O)(=O)N(C)C)c2)c1`, the cell number change is -15.6%. Besides, the half-maximal activity concentration (AC50) under setting [1] is 1.84 µM [rising, partial curve].

Consider `COc1ccc(-c2cc(C)no2)cc1S(=O)(=O)N1CCN(c2cccc(C)c2)C(C)C1` (centres undefined), for which the cell number change came out at 31.2%. Besides, under setting [2], the AC50 is 32.6 µM [rising, single point]. Also, the half-maximal activity concentration (AC50) under setting [1] is 5.17 µM [rising, single point]. As to `COc1cc(OC)cc(-c2nnc(SCc3cccnc3)o2)c1`, the cell number change was -11.3%. Further, the AC50 under setting [1] is 0.517 µM [rising, full curve].
